Assay results from patent publication US7824691B2 (priority 2005, dated 2010).
For part of these data: Not every detail of the peptide structures is certain; ends, links or a residue may be inferred. At least one compound was matched to its structure with a doubt left. Ends that are not written are not given here.

Tests used:
[1] = tested on: TNF-α plasma levels; assay: Murine sepsis model 2, heat-killed S. aureus challenge, plasma TNF-α; assay type: in vivo, BALB/c male mice; details: for TNF-α plasma levels: model 2a: drugs at 0 min after heat-killed cell challenge, FIG. 3A; for plasma TNF-α concentrations: model 2b: drugs 360 min after heat-killed bacterial challenge, FIG. 3B
Method: Heat-killed S. aureus were prepared by boiling for 10 min and sonicating a bacterial suspension for 1 min in phosphate buffered saline containing approximately 2.5×10^9 cells/mL.
(§1) Implantation of inoculum: All animals were anesthetized by an intramuscular injection of ketamine (30 mg/kg of body weight). Mice were injected intravenously (i.v.) via the tail vein with 0.2 mL of the above mentioned bacterial suspensions: (i) 2.0×10^6 CFU of S. aureus ATCC 25923 (model 1), or (ii) 5.0×10^8 heat-killed cells (model 2) on day 0 and monitored for 72 hours.
Antibiotic therapy. […] Each group included 20 mice. The animals were returned to individual cages and monitored for the subsequent 72 hours. The endpoints of the study were lethality rates (model 1), quantitative blood cultures (bacteremia, model 1), and TNF-α or IL-6 plasma levels (model 2).
Plasma TNF-α and IL-6 levels. To determine TNF-α and IL-6 in plasma (model 2), blood samples were collected from the tail vein after 0, 6, 12, 24 and 48 h post-injection. TNF-α levels were measured with a solid phase sandwich enzyme-linked immunosorbent assay (ELISA). The intensity of the color was measured in a MR 700 Microplate Reader (Dynatech Laboratories, Guernsey, United Kingdom) by reading the absorbance at 450 nm. […] All samples were performed in duplicate. The lower limit of sensitivity for TNF-α by this assay was 0.05 ng/mL. The plasma concentrations of IL-6 were also determined by ELISA, as described above. Quantification was performed on the basis of a standard curve. The detection limit was 12 pg/mL. The assays were performed in duplicate.
Statistical analysis: Lethality rates between groups were compared by use of Fisher's exact test. Data from quantitative blood cultures were presented as means±standard deviations (SDs) of the mean; statistical comparisons between groups were made by analysis of variance. Post hoc comparisons were performed by Bonferroni's test. Plasma IL-6 and TNF-α mean values were compared between groups by analysis of variance. Significance was accepted when the p value was <0.05.

[2] = tested on: S. aureus ATCC 25923; assay: Murine sepsis model 1, live S. aureus i.v. challenge (lethality, bacteremia); assay type: in vivo, BALB/c male mice; details: blood 24 h after challenge
Method: Animals: BALB/c male mice weighing 23 to 30 g were used for all the experiments. All animals were housed in individual cages under constant temperature (22° C.) and humidity with a 12 hour light/dark cycle and had access to food and water ad libitum throughout the study. The study was approved by the animal research ethics committee of the I.N.R.C.A.-I.R.R.C.S., Polytechnic University of Marche, Ancona, Italy.
Preparation of the inoculum: S. aureus ATCC 25923 were grown overnight at 37° C. in brain-heart infusion broth. When bacteria were in the log phase of growth the suspension was centrifuged at 1000× g for 15 min, the supernatant was discarded, and the bacteria were resuspended in sterile saline to achieve a concentration of approximately 1×10^7 CFU/mL.
as §1
Antibiotic therapy. […] The animals were returned to individual cages and monitored for the subsequent 72 hours. The endpoints of the study were lethality rates (model 1), quantitative blood cultures (bacteremia, model 1), and TNF-α or IL-6 plasma levels (model 2). […]

Compound | TNF-α plasma levels [1] | plasma TNF-α concentrations [1] | Qualitative Blood Culture (positive/total) ([2]; model 1a: treatment immediately after challenge) | Qualitative Blood Culture (positive/total) ([2]; model 1b: treatment 6 h after challenge)
C[C@@H](O)[C@H]1C(=O)N2C(C(=O)O)=C(SCCN=CN)C[C@H]12 [imipenem, reference compound] | No substantial differences | constant increase | 7/20^df | 7/20^df
GGLRSLGRKILRAWKKYGPIIVPIIRI-NH2 [BMAP-28] | marked decrease | constant decrease |  | 
